The target in the assay is ASR1:GUS:vNLS:cVenus (tomato) (UniProt Q08655). Nature of the assay: split reporter; BiFC with split Venus; ASR1, ASR1:GUS and ASR1:GUS:vNLS fusions co-expressed in N. benthamiana leaves, confocal microscopy with DAPI staining.

Chains of the proteins cited; added tags and fusions are not shown. Lines headed by an entry give the natural chain unless they say otherwise; changes in a name come on top.
UniProt Q08655: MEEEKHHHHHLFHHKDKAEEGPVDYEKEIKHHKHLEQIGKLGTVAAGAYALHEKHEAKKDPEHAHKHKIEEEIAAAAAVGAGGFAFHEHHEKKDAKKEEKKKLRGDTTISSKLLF

No constants are given. Whether binding was seen depends on the method and setting. In cells and extracts the contact can be indirect. Binding can be weak; no strength is given.

For the substance “ASR1:GUS fused to the amino-terminal half of Venus (from UniProt Q08655)”, the binding result was “binds”.

The values above are taken from article PMC3416805.
